Reference: patent publication US20200109207A1
No constants are given. Whether binding was seen depends on the method and setting. Some binding calls cover weakened binding; strength is not graded here.

Amino acid sequences for entries named in this document (tags omitted). A change or cut given only in a name is not applied to a line headed by its entry. Chains listed by the source or under a name are the forms on record and can include a tag or linker.
recombinant cynomolgus PD-L1-FLAG-HIS (G7PSE7, form named): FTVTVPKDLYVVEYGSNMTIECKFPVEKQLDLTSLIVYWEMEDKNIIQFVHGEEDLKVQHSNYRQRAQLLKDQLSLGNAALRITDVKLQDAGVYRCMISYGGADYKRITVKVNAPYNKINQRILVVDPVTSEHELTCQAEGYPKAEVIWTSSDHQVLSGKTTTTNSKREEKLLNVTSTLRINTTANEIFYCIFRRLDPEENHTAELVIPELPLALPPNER

What was measured:
[1] = biological target: recombinant cynomolgus PD-L1-FLAG-HIS (cynomolgus) (UniProt G7PSE7); experiment: ELISA, plate coated with recombinant cynomolgus PD-L1-FLAG-HIS; hybridoma supernatants
[2] = biological target: recombinant cynomolgus PD-L1-FLAG-HIS (cynomolgus) (UniProt G7PSE7); experiment: ELISA, plate coated with recombinant cynomolgus PD-L1-FLAG-HIS; hybridoma supernatants, anti-rat IgG Fc-HRP detection

Row | Binder | binding [1] | binding [2]
1 | anti-PD-L1 human monoclonal antibody 1B3 (antibody, V domains shown) VH: EVQLVESGGGLVQPGGSLRLSCAASGGTISTSWMSWVRQAPGKGLEWVANIKQDGSEKYYVDSVKGRFTISRDNAKNSLYLQMNSLRVEDTAMYYCARDRPVAGASALWGQGTLVTVSS VL: DIQMTQSPSTLSASVGDRVTITCRASQSISGWLAWYQQKPGKAPKLLIYKASSLESGVPSRFSGSGSGTEFTLTISSLQPDDFATYYCQQYYGSSRTFGQGTNVEIK | binds | binds
2 | anti-PD-L1 human monoclonal antibody 3B6 (antibody, V domains shown) VH: EVQLVESGGGLVQPGGSLRLSCAASGGTTSTYWMSWVRQAPGKGLEWVANIKQDGSEKYYVDSVKGRFTISRDNAKNSLNLQMNSLRVEDTAIYYCARDRPVAGASALWGQGTLVTVSS VL: DIQMTQSPSTLSASVGDRVTITCRASQSISGWLAWYQQKPGKAPKLLIYKASSLESGVPSRFSGSGSGTEFTLTISSLQPDDFATYYCQQYYGSSRTFGQGTNVEIK | binds | binds
3 | anti-PD-L1 human monoclonal antibody 4A3 (antibody, V domains shown) VH: EVQLVESGGGLVQPGGSLRLSCAASGGIISSSWMSWVRQAPGKGLEWVANIKQDGSEKYYVDSVKGRFTISRDNAKDLLYLQMNSLRVEDTALYYCARDRPVAGASALWGQGTLVTVSS VL: DIQMTQSPSTLSASVGDRVTITCRASQSISGWLAWYQQKPGKAPKLLIYKASSLESGVPSRFSGSGSGTEFTLTISSLQPDDFATYYCQQYYGSSRTFGQGTNVEIK | binds | binds
4 | anti-PD-L1 human monoclonal antibody 7H7 (antibody, V domains shown) VH: EVQLVESGGGLVQPGGSLRLSCAASGGTISTSWMSWVRQAPGKGLEWVANIKQDGSEKYYVDSVKGRFTISRDNAKNSLYLQMNSLRVEDTAIYYCARDRPVAGASALWGQGTLVTVSS VL: DIQMTQSPSTLSASVGDRVTITCRASQSISGWLAWYQQKQGKAPKLLIYKASSLESGVPSRFSGSGSGTEFTLTISSLQPDDFATYYCQQYYGSSRTFGQGTNVEIK | binds | binds
5 | anti-PD-L1 human monoclonal antibody 8B1 (antibody, V domains shown) VH: EVRLVESGGGLVQPGGSLRLSCAASGDIISTHWMSWVRQAPGKGLEWVANIKQDGSEKYYVDSVKGRFTISRDNAKNSLYLQMNTLRVEDTAIYYCTRDRPVAGASALWGQGTLVTVSS VL: DIQMTQSPSTLSASVGDRVTITCRASQSISGWLAWYQQKPGKAPKLLIYKASSLESGVPLRFSGSGSGTEFTLTISSLQPDDFATYYCQQYYGSSRTFGQGTNVEIK | binds | binds
6 | anti-PD-L1 human monoclonal antibody 9H9 (antibody, V domains shown) VH: EVQLVESGGGLVQPGGSLRLSCAASGGIISTYWMSWVRQAPGKGLEWVANIKQDGSEKYYVDSVKGRFTISRDNAKNSLYLQMNSLRVEDTAMYYCARDRPVAGASALWGQGTLVTVSS VL: DIQMTQSPSTLSASVGDRVTITCRASQSISGWLAWYQQKPGKAPKLLIYKASSLESGVPSRFSGSGSGTEFTLTISSLQPDDFATYYCQQYYGSSRTFGQGTNVEIK | binds | binds
